Results reported in the supplement of paper PMC6411743.
± gives the standard deviation of the averaged measurements. This is a selection; strong and weak results do not stand in their true shares. Most values lie at the level of the controls, where differences are scatter.

Amino acid sequences for entries named in this document (tags omitted). A change or cut given only in a name is not applied to a line headed by its entry.
UniProt Q04837: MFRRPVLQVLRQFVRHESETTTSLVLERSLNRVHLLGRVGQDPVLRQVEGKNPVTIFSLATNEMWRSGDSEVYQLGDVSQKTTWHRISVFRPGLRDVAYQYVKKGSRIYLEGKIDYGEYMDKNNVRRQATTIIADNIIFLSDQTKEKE
UniProt Q04759: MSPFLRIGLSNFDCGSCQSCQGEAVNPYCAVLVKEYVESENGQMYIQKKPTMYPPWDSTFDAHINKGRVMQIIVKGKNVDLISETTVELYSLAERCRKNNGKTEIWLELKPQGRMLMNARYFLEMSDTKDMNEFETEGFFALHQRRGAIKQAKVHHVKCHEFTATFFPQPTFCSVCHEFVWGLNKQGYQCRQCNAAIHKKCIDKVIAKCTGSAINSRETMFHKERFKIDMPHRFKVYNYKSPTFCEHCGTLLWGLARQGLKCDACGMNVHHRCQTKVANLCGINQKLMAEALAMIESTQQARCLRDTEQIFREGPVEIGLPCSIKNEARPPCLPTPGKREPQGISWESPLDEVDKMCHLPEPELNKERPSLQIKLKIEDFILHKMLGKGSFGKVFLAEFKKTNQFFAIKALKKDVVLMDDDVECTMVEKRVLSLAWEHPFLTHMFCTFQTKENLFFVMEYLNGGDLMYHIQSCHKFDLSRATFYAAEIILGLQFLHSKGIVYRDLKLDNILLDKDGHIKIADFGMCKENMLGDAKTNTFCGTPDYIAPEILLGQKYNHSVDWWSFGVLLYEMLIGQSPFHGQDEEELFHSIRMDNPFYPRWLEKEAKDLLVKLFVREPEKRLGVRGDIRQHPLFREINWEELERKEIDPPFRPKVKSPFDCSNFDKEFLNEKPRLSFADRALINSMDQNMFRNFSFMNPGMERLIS
UniProt Q02410: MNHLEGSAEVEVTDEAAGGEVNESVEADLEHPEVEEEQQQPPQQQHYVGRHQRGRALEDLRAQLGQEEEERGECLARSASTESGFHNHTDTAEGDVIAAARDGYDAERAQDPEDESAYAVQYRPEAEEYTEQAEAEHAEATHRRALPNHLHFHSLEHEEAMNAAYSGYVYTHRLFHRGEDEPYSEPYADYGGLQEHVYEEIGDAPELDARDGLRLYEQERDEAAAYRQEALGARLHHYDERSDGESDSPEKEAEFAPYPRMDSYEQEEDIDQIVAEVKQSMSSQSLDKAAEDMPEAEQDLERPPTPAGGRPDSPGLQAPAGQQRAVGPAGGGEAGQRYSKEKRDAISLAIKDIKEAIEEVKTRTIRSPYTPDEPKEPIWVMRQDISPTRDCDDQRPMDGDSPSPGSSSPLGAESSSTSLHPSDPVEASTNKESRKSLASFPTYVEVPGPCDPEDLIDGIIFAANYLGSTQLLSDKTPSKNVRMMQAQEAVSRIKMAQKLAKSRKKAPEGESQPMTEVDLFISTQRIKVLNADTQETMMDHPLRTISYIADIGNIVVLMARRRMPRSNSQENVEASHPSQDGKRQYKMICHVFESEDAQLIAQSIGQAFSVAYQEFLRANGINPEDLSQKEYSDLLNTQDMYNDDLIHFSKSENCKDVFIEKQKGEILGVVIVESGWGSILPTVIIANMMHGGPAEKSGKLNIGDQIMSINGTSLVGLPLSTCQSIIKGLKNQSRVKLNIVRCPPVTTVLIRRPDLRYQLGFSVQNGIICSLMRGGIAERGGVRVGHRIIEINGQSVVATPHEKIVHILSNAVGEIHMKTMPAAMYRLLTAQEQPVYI
UniProt Q13277: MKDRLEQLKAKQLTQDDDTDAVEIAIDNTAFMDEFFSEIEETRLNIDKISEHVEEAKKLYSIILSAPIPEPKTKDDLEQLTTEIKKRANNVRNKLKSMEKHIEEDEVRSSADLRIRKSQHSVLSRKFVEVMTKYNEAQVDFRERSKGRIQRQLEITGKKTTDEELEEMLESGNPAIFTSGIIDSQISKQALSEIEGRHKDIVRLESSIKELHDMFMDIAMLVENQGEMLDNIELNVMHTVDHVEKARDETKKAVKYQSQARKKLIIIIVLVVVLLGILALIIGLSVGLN
UniProt Q12974: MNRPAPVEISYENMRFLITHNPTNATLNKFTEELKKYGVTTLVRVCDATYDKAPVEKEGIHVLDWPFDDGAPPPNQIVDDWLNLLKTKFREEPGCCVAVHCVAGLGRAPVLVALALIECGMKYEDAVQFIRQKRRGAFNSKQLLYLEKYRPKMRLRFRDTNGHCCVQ
UniProt Q08380: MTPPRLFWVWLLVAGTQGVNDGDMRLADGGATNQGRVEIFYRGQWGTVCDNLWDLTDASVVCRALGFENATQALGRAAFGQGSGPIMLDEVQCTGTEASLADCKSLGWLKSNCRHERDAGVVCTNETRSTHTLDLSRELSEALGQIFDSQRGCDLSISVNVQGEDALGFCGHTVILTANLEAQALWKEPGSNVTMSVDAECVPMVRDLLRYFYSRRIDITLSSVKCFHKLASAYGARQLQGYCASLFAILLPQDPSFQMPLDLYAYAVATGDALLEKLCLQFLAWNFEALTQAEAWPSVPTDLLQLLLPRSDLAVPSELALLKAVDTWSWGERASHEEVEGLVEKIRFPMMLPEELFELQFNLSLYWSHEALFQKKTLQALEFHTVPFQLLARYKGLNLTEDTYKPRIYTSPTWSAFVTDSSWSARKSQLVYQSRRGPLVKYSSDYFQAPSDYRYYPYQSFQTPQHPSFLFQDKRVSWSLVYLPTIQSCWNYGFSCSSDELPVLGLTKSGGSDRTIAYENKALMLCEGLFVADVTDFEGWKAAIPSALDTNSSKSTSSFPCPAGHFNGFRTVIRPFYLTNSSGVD
UniProt Q13029: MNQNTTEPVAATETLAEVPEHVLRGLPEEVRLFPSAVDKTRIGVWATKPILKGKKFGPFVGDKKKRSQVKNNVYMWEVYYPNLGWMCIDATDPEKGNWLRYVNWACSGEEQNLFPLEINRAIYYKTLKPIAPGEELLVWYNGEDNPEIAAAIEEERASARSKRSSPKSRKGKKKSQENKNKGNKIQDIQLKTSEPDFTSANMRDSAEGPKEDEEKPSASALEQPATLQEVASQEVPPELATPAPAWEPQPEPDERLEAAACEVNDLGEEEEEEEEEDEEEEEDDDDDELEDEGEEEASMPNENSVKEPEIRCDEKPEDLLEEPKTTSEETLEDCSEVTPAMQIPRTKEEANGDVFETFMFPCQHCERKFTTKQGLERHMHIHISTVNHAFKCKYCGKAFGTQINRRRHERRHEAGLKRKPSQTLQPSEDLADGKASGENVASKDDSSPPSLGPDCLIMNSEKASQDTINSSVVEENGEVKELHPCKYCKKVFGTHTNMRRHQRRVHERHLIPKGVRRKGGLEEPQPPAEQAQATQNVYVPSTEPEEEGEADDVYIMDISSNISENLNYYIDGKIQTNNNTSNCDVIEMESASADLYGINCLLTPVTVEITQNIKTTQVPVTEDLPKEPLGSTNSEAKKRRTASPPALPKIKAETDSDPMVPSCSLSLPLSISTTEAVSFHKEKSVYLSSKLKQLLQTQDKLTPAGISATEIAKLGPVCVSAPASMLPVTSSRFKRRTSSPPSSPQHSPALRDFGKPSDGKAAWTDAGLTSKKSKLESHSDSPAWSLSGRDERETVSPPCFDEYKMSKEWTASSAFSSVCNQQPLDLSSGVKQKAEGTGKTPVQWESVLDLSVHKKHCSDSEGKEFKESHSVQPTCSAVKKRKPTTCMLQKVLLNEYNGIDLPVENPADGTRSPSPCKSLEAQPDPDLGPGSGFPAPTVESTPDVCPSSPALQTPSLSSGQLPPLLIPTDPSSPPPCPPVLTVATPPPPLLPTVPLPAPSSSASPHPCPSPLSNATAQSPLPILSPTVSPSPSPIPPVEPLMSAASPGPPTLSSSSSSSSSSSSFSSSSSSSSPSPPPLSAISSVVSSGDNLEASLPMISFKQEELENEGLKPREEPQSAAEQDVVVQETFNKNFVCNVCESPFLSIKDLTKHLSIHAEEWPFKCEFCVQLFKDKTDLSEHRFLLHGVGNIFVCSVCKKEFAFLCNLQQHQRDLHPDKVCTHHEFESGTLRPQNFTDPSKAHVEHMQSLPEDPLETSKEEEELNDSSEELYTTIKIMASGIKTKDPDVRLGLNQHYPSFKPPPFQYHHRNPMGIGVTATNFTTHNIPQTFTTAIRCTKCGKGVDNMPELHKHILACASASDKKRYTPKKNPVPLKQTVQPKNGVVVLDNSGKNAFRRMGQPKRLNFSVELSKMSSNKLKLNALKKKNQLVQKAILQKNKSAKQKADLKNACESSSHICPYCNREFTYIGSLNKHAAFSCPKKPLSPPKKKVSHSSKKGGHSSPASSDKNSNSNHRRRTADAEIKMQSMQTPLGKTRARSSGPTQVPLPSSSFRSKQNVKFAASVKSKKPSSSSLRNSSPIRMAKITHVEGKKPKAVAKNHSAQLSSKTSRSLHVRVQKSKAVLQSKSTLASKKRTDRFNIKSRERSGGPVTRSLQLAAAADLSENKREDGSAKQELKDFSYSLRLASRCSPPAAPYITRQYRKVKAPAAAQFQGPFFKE
UniProt Q14088: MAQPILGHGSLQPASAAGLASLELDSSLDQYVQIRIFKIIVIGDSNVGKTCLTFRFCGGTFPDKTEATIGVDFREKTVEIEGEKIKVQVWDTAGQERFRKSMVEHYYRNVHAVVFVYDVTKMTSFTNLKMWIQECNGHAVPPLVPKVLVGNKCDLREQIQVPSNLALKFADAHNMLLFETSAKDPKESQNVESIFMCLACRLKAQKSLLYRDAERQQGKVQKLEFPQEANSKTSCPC
UniProt Q13951, whole entry: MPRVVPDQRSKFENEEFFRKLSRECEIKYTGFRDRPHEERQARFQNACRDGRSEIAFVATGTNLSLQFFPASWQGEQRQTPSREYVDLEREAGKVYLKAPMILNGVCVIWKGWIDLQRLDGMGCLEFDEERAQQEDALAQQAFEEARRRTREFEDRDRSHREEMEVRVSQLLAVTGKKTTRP
UniProt Q12906, whole entry: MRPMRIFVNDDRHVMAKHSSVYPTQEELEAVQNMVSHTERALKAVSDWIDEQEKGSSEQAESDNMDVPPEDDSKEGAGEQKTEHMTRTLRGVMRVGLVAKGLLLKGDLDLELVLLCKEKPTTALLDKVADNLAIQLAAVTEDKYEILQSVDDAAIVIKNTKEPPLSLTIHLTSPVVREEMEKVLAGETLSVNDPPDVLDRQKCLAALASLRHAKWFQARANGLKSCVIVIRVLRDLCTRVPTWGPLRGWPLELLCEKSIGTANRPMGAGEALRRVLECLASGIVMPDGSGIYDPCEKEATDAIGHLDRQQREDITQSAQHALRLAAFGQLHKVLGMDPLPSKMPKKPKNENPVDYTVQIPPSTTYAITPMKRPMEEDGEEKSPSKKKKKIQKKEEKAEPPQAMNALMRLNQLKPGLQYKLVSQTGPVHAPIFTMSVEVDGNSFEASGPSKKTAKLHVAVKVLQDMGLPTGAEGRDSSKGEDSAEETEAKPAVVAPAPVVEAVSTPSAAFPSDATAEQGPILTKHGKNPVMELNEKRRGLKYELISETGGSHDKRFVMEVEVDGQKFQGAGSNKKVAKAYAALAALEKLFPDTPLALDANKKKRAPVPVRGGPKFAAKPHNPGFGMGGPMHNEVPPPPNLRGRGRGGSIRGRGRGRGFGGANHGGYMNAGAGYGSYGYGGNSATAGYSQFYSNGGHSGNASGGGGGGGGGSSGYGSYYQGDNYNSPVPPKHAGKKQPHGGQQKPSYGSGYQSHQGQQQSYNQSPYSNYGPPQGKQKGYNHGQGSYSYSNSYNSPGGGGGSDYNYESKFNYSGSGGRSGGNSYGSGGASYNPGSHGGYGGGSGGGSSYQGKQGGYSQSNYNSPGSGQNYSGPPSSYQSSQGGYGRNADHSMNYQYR
UniProt Q14137: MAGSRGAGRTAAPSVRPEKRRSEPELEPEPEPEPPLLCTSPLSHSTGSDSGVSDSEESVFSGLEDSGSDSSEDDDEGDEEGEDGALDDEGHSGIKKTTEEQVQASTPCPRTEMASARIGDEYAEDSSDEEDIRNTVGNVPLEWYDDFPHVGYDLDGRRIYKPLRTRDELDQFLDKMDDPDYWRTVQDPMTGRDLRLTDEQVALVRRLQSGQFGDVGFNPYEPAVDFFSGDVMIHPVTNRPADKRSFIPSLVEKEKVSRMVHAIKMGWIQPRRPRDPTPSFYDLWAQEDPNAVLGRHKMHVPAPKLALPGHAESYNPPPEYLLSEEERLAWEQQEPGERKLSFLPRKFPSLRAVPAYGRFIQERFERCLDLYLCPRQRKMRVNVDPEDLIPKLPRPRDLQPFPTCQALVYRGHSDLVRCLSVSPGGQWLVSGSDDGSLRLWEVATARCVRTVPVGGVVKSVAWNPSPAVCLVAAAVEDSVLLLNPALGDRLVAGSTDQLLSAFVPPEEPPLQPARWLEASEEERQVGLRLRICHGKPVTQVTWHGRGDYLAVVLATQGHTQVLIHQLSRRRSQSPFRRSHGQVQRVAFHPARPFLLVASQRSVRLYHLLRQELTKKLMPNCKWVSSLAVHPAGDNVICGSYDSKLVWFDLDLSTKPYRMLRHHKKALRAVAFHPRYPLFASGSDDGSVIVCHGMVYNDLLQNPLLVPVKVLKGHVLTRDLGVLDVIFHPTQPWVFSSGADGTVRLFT

These targets were tested with Nc1ncnc2c1ncn2[C@@H]1O[C@H](COP(=O)(O)OP(=O)(O)OP(=O)(O)O)[C@@H](O)[C@H]1O [adenosine triphosphate] (assay: NP40-soluble protein abundance relative to vehicle (solubility fold change) (ratio); higher = more soluble protein in presence of ATP). Conditions: concentration: 0.5mM.
How it was run: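 Eight concentrations, 0.1 to 10 mM, were tested on Jurkat crude lysate for 10 min at room temperature and then 3 min at 37 °C, in three independent experiments. The lysate was solubilised with 0.8% NP40 and benzonase, ultracentrifuged, and the supernatant TMT-labelled for LC-MS/MS. Each value is the fold change against the detergent-processed vehicle in its own replicate, from vsn-normalised intensities.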
Target SSBP1 (UniProt Q04837) has an NP40-soluble protein abundance of 1 ± 0.021. In the case of UniProt Q05655, the NP40-soluble protein abundance is reported as 1.04 ± 0.073. RPL6 (UniProt Q02878) gave an NP40-soluble protein abundance of 0.99 ± 0.075. In the case of UniProt Q08623 and related entries, the NP40-soluble protein abundance is reported as 1.02 ± 0.046. UniProt Q0VD83 and related entries showed an NP40-soluble protein abundance of 0.982 ± 0.086. PRKCQ (UniProt Q04759) showed an NP40-soluble protein abundance of 1.09 ± 0.093. GRAP (UniProt Q13588) showed an NP40-soluble protein abundance of 1.09 ± 0.13. For UniProt Q02410 and related entries, the NP40-soluble protein abundance was 0.904 ± 0.042. Target GALNT2 (UniProt Q10471) has an NP40-soluble protein abundance of 1.05 ± 0.059. Target SLFN5 (UniProt Q08AF3) has an NP40-soluble protein abundance of 1.2 ± 0.031. In the case of UniProt Q13277 and related entries, the NP40-soluble protein abundance is reported as 0.972 ± 0.023. PAK2 (UniProt Q13177) was tested, and the NP40-soluble protein abundance was 1.04 ± 0.076. Work on KHDRBS1 (UniProt Q07666) yielded an NP40-soluble protein abundance of 1.02 ± 0.053. For DPYD (UniProt Q12882), the NP40-soluble protein abundance was 1.03 ± 0.019. Work on UniProt Q12974 yielded an NP40-soluble protein abundance of 0.964 ± 0.041. LGALS3BP (UniProt Q08380) gave an NP40-soluble protein abundance of 0.951 ± 0.083. For PPAT (UniProt Q06203), the NP40-soluble protein abundance was 0.997 ± 0.012. For TRIM28 (UniProt Q13263), the NP40-soluble protein abundance was 1.02 ± 0.033. Work on UniProt Q13501 and related entries yielded an NP40-soluble protein abundance of 0.937 ± 0.012. UniProt Q13029 and related entries gave an NP40-soluble protein abundance of 1.15 ± 0.061. In the case of RAB33A (UniProt Q14088), the NP40-soluble protein abundance is reported as 1.07 ± 0.079. Target UniProt Q13951-2|Q13951 has an NP40-soluble protein abundance of 0.9976 ± 0.0026. Work on UniProt Q13724 and related entries yielded an NP40-soluble protein abundance of 1.05 ± 0.079. Work on UniProt Q13164 yielded an NP40-soluble protein abundance of 1.02 ± 0.097. UniProt Q13469 and related entries gave an NP40-soluble protein abundance of 1.03 ± 0.075. Work on UniProt Q12906 and related entries yielded an NP40-soluble protein abundance of 1.07 ± 0.071. Work on UniProt Q13574 and related entries yielded an NP40-soluble protein abundance of 1.07 ± 0.042. For EIF4EBP2 (UniProt Q13542), the NP40-soluble protein abundance was 0.97 ± 0.14. In the case of UniProt Q02338 and related entries, the NP40-soluble protein abundance is reported as 1.06 ± 0.075. ITK (UniProt Q08881) was tested, and the NP40-soluble protein abundance was 1.05 ± 0.048. Target OGDH (UniProt Q02218) has an NP40-soluble protein abundance of 1.1 ± 0.054. In the case of UniProt Q12904, the NP40-soluble protein abundance is reported as 0.998 ± 0.092. With UniProt Q0VG06 and related entries the NP40-soluble protein abundance was 1.03 ± 0.065. “UniProt Q01432-5|Q01432 and related entries” showed an NP40-soluble protein abundance of 1.07 ± 0.022. Target EEF1A2 (UniProt Q05639) has an NP40-soluble protein abundance of 0.992 ± 0.21. Target BOP1 (UniProt Q14137) has an NP40-soluble protein abundance of 1.06 ± 0.039. Target UniProt Q13190 and related entries has an NP40-soluble protein abundance of 1.02 ± 0.036. DDX10 (UniProt Q13206) was tested, and the NP40-soluble protein abundance was 0.941 ± 0.069.
